Data as given in PubChem BioAssay AID1508597 (Cure First, 2020).
In all, the deposit lists about 2,100 reagents; shown is a random part of them. 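Calls flag viability under 80% in either arm, not effects specific to rucaparib; the reference for percent is not stated.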 Not stated in the record: the 100% reference.

Screen: 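Genes whose silencing sensitises or protects ovarian cancer cells against rucaparib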 (primary screen)
Cells: human ovarian carcinoma lines grown from tumours: OCI-P5x (papillary serous) and OCI-C5x (clear cell)
Reagent: siRNA pool against human genes, 1.25 pmol siRNA per well
Duration: 72 h or 96 h, depending on the cell culture
Conditions: rucaparib 20 µM (about IC30) or vehicle, present until read-out
Detection: 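ATP luminescence measured at 72 or 96 h according to the culture, then normalised and expressed as percent viability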
Reading the numbers: viability, normalised: higher = more viable cells remaining
Call rule: 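a well counts as a hit if its normalised viability is under 80 percent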
Calls: active = viability under 80%; inactive = viability 80% or more

Which result is listed for GLRA2, rucaparib or vehicle Rucaparib, cell line OCI-C5x (clear cell), technical replicate 1?
viability, normalised (%): 41.6; Outcome: active

How did the screen score GLRA2, rucaparib or vehicle Rucaparib, cell line OCI-C5x (clear cell), technical replicate 2?
viability, normalised (%): 36.5; Outcome: active

With GLRA2, rucaparib or vehicle Rucaparib, cell line OCI-C5x (clear cell), technical replicate 3, what was measured?
viability, normalised (%): 38; Outcome: active

What did the screen give for GLRA2, rucaparib or vehicle Rucaparib, cell line OCI-P5x (serous), technical replicate 1?
viability, normalised (%): 41.8; Outcome: active

What did the screen give for GLRA2, rucaparib or vehicle Rucaparib, cell line OCI-P5x (serous), technical replicate 2?
viability, normalised (%): 43.6; Outcome: active

With GLRA2, rucaparib or vehicle Rucaparib, cell line OCI-P5x (serous), technical replicate 3, what was measured?
viability, normalised (%): 49.7; Outcome: active

What is on record for GLRA2, rucaparib or vehicle Vehicle, cell line OCI-C5x (clear cell), technical replicate 1?
viability, normalised (%): 29.1; Outcome: active

With GLRA2, rucaparib or vehicle Vehicle, cell line OCI-C5x (clear cell), technical replicate 2, what does the deposit list?
viability, normalised (%): 41.5; Outcome: active

Which result is listed for GLRA2, rucaparib or vehicle Vehicle, cell line OCI-C5x (clear cell), technical replicate 3?
viability, normalised (%): 39.1; Outcome: active

Which result is listed for GLRA2, rucaparib or vehicle Vehicle, cell line OCI-P5x (serous), technical replicate 1?
viability, normalised (%): 66.9; Outcome: active

With GLRA2, rucaparib or vehicle Vehicle, cell line OCI-P5x (serous), technical replicate 2, how do the results read?
viability, normalised (%): 69; Outcome: active

With GLRA2, rucaparib or vehicle Vehicle, cell line OCI-P5x (serous), technical replicate 3, what does the deposit list?
viability, normalised (%): 76.9; Outcome: active

With FANCC, rucaparib or vehicle Rucaparib, cell line OCI-C5x (clear cell), technical replicate 1, what was measured?
viability, normalised (%): 39.1; Outcome: active

With FANCC, rucaparib or vehicle Rucaparib, cell line OCI-C5x (clear cell), technical replicate 2, what does the deposit list?
viability, normalised (%): 62.9; Outcome: active

For FANCC, rucaparib or vehicle Rucaparib, cell line OCI-C5x (clear cell), technical replicate 3, what was measured?
viability, normalised (%): 41.1; Outcome: active

How did the screen score FANCC, rucaparib or vehicle Rucaparib, cell line OCI-P5x (serous), technical replicate 1?
viability, normalised (%): 77.1; Outcome: active

Which result is listed for FANCC, rucaparib or vehicle Rucaparib, cell line OCI-P5x (serous), technical replicate 2?
viability, normalised (%): 79.4; Outcome: active

How did the screen score FANCC, rucaparib or vehicle Rucaparib, cell line OCI-P5x (serous), technical replicate 3?
viability, normalised (%): 63; Outcome: active

Which result is listed for FANCC, rucaparib or vehicle Vehicle, cell line OCI-C5x (clear cell), technical replicate 1?
viability, normalised (%): 65.6; Outcome: active

With FANCC, rucaparib or vehicle Vehicle, cell line OCI-C5x (clear cell), technical replicate 2, what does the deposit list?
viability, normalised (%): 55.1; Outcome: active

For FANCC, rucaparib or vehicle Vehicle, cell line OCI-C5x (clear cell), technical replicate 3, what does the deposit list?
viability, normalised (%): 68.6; Outcome: active

For FANCC, rucaparib or vehicle Vehicle, cell line OCI-P5x (serous), technical replicate 1, how do the results read?
viability, normalised (%): 79; Outcome: active

With FANCC, rucaparib or vehicle Vehicle, cell line OCI-P5x (serous), technical replicate 2, how do the results read?
viability, normalised (%): 70.7; Outcome: active

What is on record for FANCC, rucaparib or vehicle Vehicle, cell line OCI-P5x (serous), technical replicate 3?
viability, normalised (%): 70.5; Outcome: active

How did the screen score BOK, rucaparib or vehicle Rucaparib, cell line OCI-C5x (clear cell), technical replicate 1?
viability, normalised (%): 30.9; Outcome: active

With BOK, rucaparib or vehicle Rucaparib, cell line OCI-C5x (clear cell), technical replicate 2, what does the deposit list?
viability, normalised (%): 35.7; Outcome: active

With BOK, rucaparib or vehicle Rucaparib, cell line OCI-C5x (clear cell), technical replicate 3, what was measured?
viability, normalised (%): 43.1; Outcome: active

With BOK, rucaparib or vehicle Rucaparib, cell line OCI-P5x (serous), technical replicate 1, what does the deposit list?
viability, normalised (%): 72.7; Outcome: active

Which result is listed for BOK, rucaparib or vehicle Rucaparib, cell line OCI-P5x (serous), technical replicate 2?
viability, normalised (%): 70.4; Outcome: active

For BOK, rucaparib or vehicle Rucaparib, cell line OCI-P5x (serous), technical replicate 3, what was measured?
viability, normalised (%): 53.8; Outcome: active

Which result is listed for BOK, rucaparib or vehicle Vehicle, cell line OCI-C5x (clear cell), technical replicate 1?
viability, normalised (%): 48.9; Outcome: active

For BOK, rucaparib or vehicle Vehicle, cell line OCI-C5x (clear cell), technical replicate 2, how do the results read?
viability, normalised (%): 42.5; Outcome: active

With BOK, rucaparib or vehicle Vehicle, cell line OCI-C5x (clear cell), technical replicate 3, how do the results read?
viability, normalised (%): 38.7; Outcome: active

What is on record for BOK, rucaparib or vehicle Vehicle, cell line OCI-P5x (serous), technical replicate 1?
viability, normalised (%): 70.7; Outcome: active

What did the screen give for BOK, rucaparib or vehicle Vehicle, cell line OCI-P5x (serous), technical replicate 2?
viability, normalised (%): 83.5; Outcome: inactive

With BOK, rucaparib or vehicle Vehicle, cell line OCI-P5x (serous), technical replicate 3, what does the deposit list?
viability, normalised (%): 82.9; Outcome: inactive

6 of these entries, set out differently.
BOK, rucaparib or vehicle Rucaparib, cell line OCI-P5x (serous), technical replicate 1
- viability, normalised (%): 72.7
- Outcome: active

BOK, rucaparib or vehicle Rucaparib, cell line OCI-P5x (serous), technical replicate 2
- viability, normalised (%): 70.4
- Outcome: active

BOK, rucaparib or vehicle Rucaparib, cell line OCI-P5x (serous), technical replicate 3
- viability, normalised (%): 53.8
- Outcome: active

BOK, rucaparib or vehicle Vehicle, cell line OCI-C5x (clear cell), technical replicate 1
- viability, normalised (%): 48.9
- Outcome: active

BOK, rucaparib or vehicle Vehicle, cell line OCI-C5x (clear cell), technical replicate 2
- viability, normalised (%): 42.5
- Outcome: active

BOK, rucaparib or vehicle Vehicle, cell line OCI-C5x (clear cell), technical replicate 3
- viability, normalised (%): 38.7
- Outcome: active
